From patent US20250255874A1, “Methods for Treating Immune Thrombocytopenia By Administering (R)-2-[3-[4-Amino-3-(2-Fluoro-4-Phenoxy-Phenyl)Pyrazolo[3,4-D]Pyrimidin-1-YL]Piperidine-1-Carbonyl]-4-Methyl-4-[4-(Oxetan-3-YL)Piperazin-1-YL]Pent-2-Enentrile” (Principia Biopharma Inc., priority 2022, published 2025)
At least one structure is not confirmed: it was looked up by name or label, or the drawing left a doubt.

Test system: 251 kinases sharing a common cysteine in their active site
Experiment: broad kinase enzyme inhibition panel
Assay type: biochemical
Settings: 1 μM

For `C=CC(=O)N1CCC[C@@H](n2nc(-c3ccc(Oc4ccccc4)cc3)c3c(N)ncnc32)C1` [ibrutinib, reference compound], the “number of kinases inhibited (>90% inhibition) of 251 kinases” value was 21 kinases.
